Laboratory results: PubChem BioAssay AID2685 (National Center for Advancing Translational Sciences (NCATS), 2010)
Some of the results follow. Shown are side measurements of this screen, not its main read-out; they come without a call. The list favours compounds with an active or inconclusive main result. The note in brackets gives the kind of curve behind each potency; many fits are weak.

Assay: qHTS Assay for Lipid Storage Modulators in Drosophila S3 Cells;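 on cell number change: cells counted by Cell Tracker Red CMTPX staining in the red channel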
Conditions: BODIPY lipid droplet fluorescence, 18-24 h; for cell number change: measured here: cell count max response, cells fed with added oleic acid
Summary of the method: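 Drosophila S3 cells loaded with oleic acid (400 uM, as added) and compounds at several concentrations; lipid droplets imaged by 488-nm laser-scanning cytometry, 500–530 nm intensity and object ratio to cell channel. Percent activity normalized to 20 uM Triacsin C.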

[1] = measured here: cell number channel AC50, cells fed with added oleic acid
[2] = measured here: lipid fluorescence (Fed channel) AC50, cells fed with added oleic acid

Structure (SMILES) | cell number change [%] | AC50 [1] | AC50 [2]
CC(C)OCCCNC(=O)c1cn(C)c2ccc(S(=O)(=O)N(C)C3CCCCC3)cc2c1=O | -38.4 | 9.2 µM [falling, partial curve] | –
C=CCNCCCOc1ccc(C)cc1Br | -50.5 | 29.1 µM [falling, single point] | –
CCCCOc1ccc(-n2nc(C)cc2C)nn1 | 11.6 | – | 0.731 µM [rising, single point]
CCOC(=O)C1=C(COC(=O)/C=C/c2cccc([N+](=O)[O-])c2)NC(=O)NC1C (configuration not stated) | -66.3 | 14.6 µM [falling, partial curve, poor fit] | –
Cc1ccc(NCC(O)C(O)C(O)CO)c(N=Nc2ccccc2)c1C (configuration not stated) | -10.7 | – | 11.6 µM [falling, partial curve, poor fit]
CC(C)CCn1nnnc1CN1CCN(c2ccccc2)CC1 | -1.64 | 0.517 µM [falling, single point] | –
O=C(NNC(=O)c1ccc(S(=O)(=O)N2CCOCC2)cc1)c1ccccc1 | -11.8 | – | –
CCc1cc(C(c2ccc(F)cc2)N2CCOCC2)c(NC(=O)c2ccccc2)s1 (configuration not stated) | -8.81 | – | –
COc1ccc(CCn2c(=N)c(C(=O)N3CCN(C)CC3)cc3c(=O)n4ccccc4nc32)cc1 | -31.6 | 29.1 µM [falling, single point] | 0.411 µM [rising, full curve]
Cc1ccc(CNC(=O)CCCN2C(=S)NC(C)(C)CC2C)cc1 (configuration not stated) | 4.94 | – | –
Cc1ccc(C)c(NC(=O)COC(=O)CCC(=O)c2cccs2)c1 | -43.8 | – | 2.06 µM [rising, partial curve]
CS(=O)(=O)N(CC(=O)O)c1ccc(C23CC4CC(CC(C4)C2)C3)cc1 | -0.365 | – | –
O=C(Nc1ccc(N2CCCC2)cc1)C(c1ccccc1)c1ccccc1 | 4.17 | 2.06 µM [falling, partial curve] | 1.64 µM [falling, partial curve]
COc1ccc(S(=O)(=O)N2CCN(c3ncccn3)CC2)cc1OC | 5.47 | – | 9.2 µM [rising, single point]
CC(C)(C)NC(=O)c1cccc(NC(=O)c2ccco2)c1 | -19.9 | – | 18.4 µM [falling, single point]
Cc1cc(C)c(NC(=O)C(=O)NCc2ccco2)c(C)c1 | 44.6 | 2.91 µM [rising, full curve] | –
CSc1nnc(-c2sccc2-n2cccc2)o1 | 33.7 | 32.6 µM [rising, single point] | –
Cc1ccc2cc(C#N)c(SCc3nnc(-c4ccccc4[N+](=O)[O-])o3)nc2c1 | -15.8 | – | 1.46 µM [falling, partial curve, poor fit]
O=C(Nc1cc(Sc2ccccn2)cc([N+](=O)[O-])c1)c1cccc(F)c1 | 19 | – | 16.4 µM [rising, partial curve]
Cn1nnnc1NCc1cccc(Cl)c1Cl | 10.2 | – | –
COCC(C)n1c(C)cc(C(=O)COC(=O)c2nc3nc(C)cc(C)n3n2)c1C (configuration not stated) | 16.1 | – | 0.116 µM [falling, single point]

Structure (SMILES) | cell number change [%] | AC50 [1] | AC50 [2]
CCn1c(SCC(=O)Nc2ccccc2C)nc2nc3c(cc2c1=O)COC(C)(C)C3 | 16.3 | – | 0.92 µM [rising, full curve, poor fit]
CCC(Oc1ccccc1C)C(=O)N1CCCN(C)CC1 (configuration not stated) | 11 | – | –
COc1cc(-c2nnc(SCc3ccccc3Cl)o2)cc(OC)c1OC | – | – | 23.1 µM [rising, partial curve]
COc1cccc2oc3cc(C#Cc4ccccn4)ccc3c(=O)c12 | – | – | 20.6 µM [falling, partial curve]
CN1C(=O)C2(c3ccccc31)N(C)CC(c1ccccc1)C21SC(=S)N(Cc2ccco2)C1=O (configuration not stated) | – | – | 29.1 µM [rising, single point]
CCOc1ccc(NC(=O)CCCCn2c(=O)[nH]c3ccsc3c2=O)cc1 | 61.2 | 7.31 µM [rising, partial curve] | –
O=C(COc1ccc2ccccc2c1)NNC(=O)C(=O)Nc1ccccc1 | 6.41 | – | 23.1 µM [rising, single point]
COc1ccc(C(=O)NCC(=O)OCc2ccc(Br)cc2)cc1 | -8.19 | – | 3.66 µM [rising, single point]
O=C(COc1ccc(Cl)cc1)NCCCNC(=O)c1ccncc1 | -23.8 | – | –
N#Cc1ccccc1S(=O)(=O)c1ccccc1C(=O)Nc1ccccc1 | 28.9 | – | 2.31 µM [rising, single point]
O=C(CNc1ccccc1)N/N=C/c1c[nH]c2ccccc12 | 1.28 | – | 29.1 µM [rising, single point]
O=C(O)c1cccc(NC(=O)c2ccc(S(=O)(=O)c3ccccc3)cc2)c1 | -23 | – | 25.9 µM [falling, single point]
COc1ccc2c(c1)[C@@H]1[C@H](CO2)[C@H](c2ccccc2)[C@]2(C)C(=O)NCC(=O)N12 | 12.1 | 0.00461 µM [rising, full curve, poor fit] | –
COC(=O)CC1(c2cccc3ccccc23)C(=O)c2ccccc2C1=O | -46.5 | 0.00461 µM [falling, full curve, poor fit] | 0.116 µM [falling, full curve, poor fit]
CCN(CC)c1ccc(C(=O)NNC(=O)CNC(=O)c2ccco2)cc1 | 8.84 | – | –
CCN1/C(=C\c2ccc3ccccc3[n+]2CC)Sc2cc(C)ccc21 | -98.1 | 9.2 µM [falling, partial curve] | 0.411 µM [falling, full curve]
COc1ccc(C(=O)N/N=C\c2ccc(OC)c(COc3ccccc3Br)c2)c(OC)c1 | 13.4 | – | –
O=C(NCCCc1ccccc1)c1cccs1 | 4.31 | – | 20.6 µM [rising, single point]
CC[n+]1oc(-c2ccccc2)cc1C | 0.213 | 4.11 µM [falling, single point] | 4.11 µM [falling, single point]
Cc1ccc(-n2cccc2/C=C2/C(=N)N3C(=NC2=O)SN=C3S(C)(=O)=O)cc1Cl | 2.26 | – | 4.11 µM [rising, single point]
N#Cc1cccc(NC(=O)COC(=O)C2CCC2)c1 | -29.6 | – | 2.91 µM [falling, full curve]

Reformatted: 4 of the compounds above.
CC(C)(C)NC(=O)c1cccc(NC(=O)c2ccco2)c1
  cell number change [%]: -19.9
  AC50 [2]: 18.4 µM [falling, single point]
Cc1ccc2cc(C#N)c(SCc3nnc(-c4ccccc4[N+](=O)[O-])o3)nc2c1
  cell number change [%]: -15.8
  AC50 [2]: 1.46 µM [falling, partial curve, poor fit]
COCC(C)n1c(C)cc(C(=O)COC(=O)c2nc3nc(C)cc(C)n3n2)c1C (configuration not stated)
  cell number change [%]: 16.1
  AC50 [2]: 0.116 µM [falling, single point]
COc1ccc(C(=O)NCC(=O)OCc2ccc(Br)cc2)cc1
  cell number change [%]: -8.19
  AC50 [2]: 3.66 µM [rising, single point]

Later entries:

Structure (SMILES) | cell number change [%] | AC50 [1] | AC50 [2]
CCCCOC(=O)Nc1sc2nc(C)cc(C)c2c1-n1cccc1 | -23.4 | – | 18.4 µM [falling, single point]
COc1ccccc1CNS(=O)(=O)c1ccc(Cl)s1 | -2.86 | – | –
O=C(CCn1c(=O)oc2cc(Cl)ccc21)Nc1ccc(O)cc1 | 12.6 | – | 29.1 µM [rising, single point]
COc1cccc(N/N=C/c2cccc(Br)c2O)c1 | – | – | 1.46 µM [rising, partial curve]
CC(C)(C)c1ccc(C(=O)NCCC(=O)N2CCCC2)cc1 | 17.1 | – | 23.1 µM [falling, single point]
COc1ccc(C(=O)/C=C/Sc2nc3ccccc3o2)cc1 | -67.7 | 10.3 µM [falling, partial curve] | 13 µM [falling, partial curve]
CSc1ccccc1C(=O)N(C)Cc1ccccc1 | 45.2 | – | –
Cc1cc(Br)ccc1NC(=O)C1CSC2(C)CCC(=O)N12 (configuration not stated) | 13.9 | – | 29.1 µM [rising, single point]
COc1ccccc1/C=C1\SC(=S)N(CCC(=O)N2CCN(C)CC2)C1=O | -10.3 | – | 6.51 µM [falling, single point]
CCc1ccc(C(=O)NCc2ccc(Cl)cc2Cl)cc1 | -22.7 | – | 0.00461 µM [rising, full curve, poor fit]
CCC(Sc1nc2cc3c(cc2c(=O)n1Cc1ccco1)OCO3)C(=O)Nc1ccccc1OC (configuration not stated) | -12 | – | 6.51 µM [rising, single point]
CCn1c(COc2ccc(=O)n(-c3ccccc3)n2)nnc1SCc1ccccc1C | – | 0.92 µM [rising, full curve, poor fit] | –
CC1(C)Cc2c(cnn2-c2ccccc2)-c2c1c1ccccc1n2CC(O)CCl (configuration not stated) | -45.4 | 14.6 µM [falling, partial curve, poor fit] | 23.1 µM [falling, partial curve]
COc1ccc(CCNC(=O)C2CCN(C(=O)c3ccc(F)cc3)CC2)cc1 | 1.32 | – | –
O=C(NC1CCCCC1)c1ccc(Cn2cc(Cl)cn2)cc1 | 34.4 | 1.46 µM [rising, full curve, poor fit] | 1.46 µM [rising, full curve]
Cc1cccc(OCc2nnc(SC(C)C(=O)O)n2-c2ccccc2)c1 (configuration not stated) | -5.11 | – | –
O=C(NCc1ccccn1)c1ccc(Cl)c(S(=O)(=O)N2CCCCCC2)c1 | – | 1.03 µM [rising, full curve, poor fit] | 0.0116 µM [falling, full curve, poor fit]
Cc1cc(C)n(CCNS(=O)(=O)c2ccc(Cl)cc2)n1 | -10.8 | – | 18.4 µM [rising, partial curve]
O=C(Nc1ccc2c(c1)OCCO2)c1ccc(Cl)c([N+](=O)[O-])c1 | – | – | 20.6 µM [falling, single point]
Cc1ccc(NC(=O)CN2C(=O)NC3(CCCCCCC3)C2=O)cc1C | 1.31 | 5.8 µM [rising, single point] | 5.17 µM [rising, single point]
O=C(Nc1ccc2c(c1)CCC2)C1CCCN(c2ncccn2)C1 (configuration not stated) | -37.7 | 29.1 µM [falling, single point] | 7.31 µM [falling, partial curve]
